5 molecules from PMC3708830 can be followed below.

Sequences of proteins named here, by UniProt entry; tags and fusion partners are left off.
UniProt O09106: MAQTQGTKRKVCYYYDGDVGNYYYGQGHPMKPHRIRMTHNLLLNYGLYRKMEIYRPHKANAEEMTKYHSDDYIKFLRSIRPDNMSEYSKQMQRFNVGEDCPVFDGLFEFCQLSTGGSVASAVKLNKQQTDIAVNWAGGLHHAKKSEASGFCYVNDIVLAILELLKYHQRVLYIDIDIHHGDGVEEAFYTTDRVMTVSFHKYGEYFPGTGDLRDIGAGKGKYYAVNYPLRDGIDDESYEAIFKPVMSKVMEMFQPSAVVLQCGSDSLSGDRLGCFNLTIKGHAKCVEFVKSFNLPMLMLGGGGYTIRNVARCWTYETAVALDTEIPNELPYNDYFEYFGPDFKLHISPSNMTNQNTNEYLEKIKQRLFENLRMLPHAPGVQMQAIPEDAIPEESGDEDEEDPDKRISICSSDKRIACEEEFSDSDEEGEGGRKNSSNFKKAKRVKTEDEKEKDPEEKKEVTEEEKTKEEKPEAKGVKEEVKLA
UniProt P70288: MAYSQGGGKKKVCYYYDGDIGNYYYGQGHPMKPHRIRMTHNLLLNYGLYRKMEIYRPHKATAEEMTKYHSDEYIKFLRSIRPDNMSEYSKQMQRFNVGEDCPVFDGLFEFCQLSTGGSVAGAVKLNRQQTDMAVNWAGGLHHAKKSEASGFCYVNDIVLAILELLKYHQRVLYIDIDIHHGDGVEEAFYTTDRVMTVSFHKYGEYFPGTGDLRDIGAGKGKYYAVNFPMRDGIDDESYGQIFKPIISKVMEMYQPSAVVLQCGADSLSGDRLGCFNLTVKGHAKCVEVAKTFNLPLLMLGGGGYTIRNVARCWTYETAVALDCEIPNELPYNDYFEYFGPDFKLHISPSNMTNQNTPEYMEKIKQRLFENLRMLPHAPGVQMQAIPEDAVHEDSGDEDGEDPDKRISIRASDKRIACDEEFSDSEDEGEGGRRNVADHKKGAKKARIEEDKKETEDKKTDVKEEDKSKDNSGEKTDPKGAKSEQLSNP

No constants are given. Whether binding was seen depends on the method and setting. In cells and extracts the contact can be indirect. Some binding calls cover weakened binding; strength is not graded here. For some assays here: Sequences can lack the tags named with a protein.

Holding throughout (experiment): co-IP; ventricular lysates of C57BL/6J and db/db mice, sedentary or treadmill exercised for 4 weeks; precleared over protein A/G agarose, IP overnight at 4°C on beads with primary antibody (anti-OGT, anti-mSin3A or anti-HDAC1), eluted at 100°C, immunoblot; lysis buffer with PUGNAc, phosphatase and protease inhibitors; negative control: IP without antibody
Background: A western blot detects proteins with antibodies after separation by electrophoresis.

The target in assay [1] is T1, Mammalian switch-independent 3A (mouse (endogenous in ventricular tissue)) (UniProt Q60520).
T1 sequence: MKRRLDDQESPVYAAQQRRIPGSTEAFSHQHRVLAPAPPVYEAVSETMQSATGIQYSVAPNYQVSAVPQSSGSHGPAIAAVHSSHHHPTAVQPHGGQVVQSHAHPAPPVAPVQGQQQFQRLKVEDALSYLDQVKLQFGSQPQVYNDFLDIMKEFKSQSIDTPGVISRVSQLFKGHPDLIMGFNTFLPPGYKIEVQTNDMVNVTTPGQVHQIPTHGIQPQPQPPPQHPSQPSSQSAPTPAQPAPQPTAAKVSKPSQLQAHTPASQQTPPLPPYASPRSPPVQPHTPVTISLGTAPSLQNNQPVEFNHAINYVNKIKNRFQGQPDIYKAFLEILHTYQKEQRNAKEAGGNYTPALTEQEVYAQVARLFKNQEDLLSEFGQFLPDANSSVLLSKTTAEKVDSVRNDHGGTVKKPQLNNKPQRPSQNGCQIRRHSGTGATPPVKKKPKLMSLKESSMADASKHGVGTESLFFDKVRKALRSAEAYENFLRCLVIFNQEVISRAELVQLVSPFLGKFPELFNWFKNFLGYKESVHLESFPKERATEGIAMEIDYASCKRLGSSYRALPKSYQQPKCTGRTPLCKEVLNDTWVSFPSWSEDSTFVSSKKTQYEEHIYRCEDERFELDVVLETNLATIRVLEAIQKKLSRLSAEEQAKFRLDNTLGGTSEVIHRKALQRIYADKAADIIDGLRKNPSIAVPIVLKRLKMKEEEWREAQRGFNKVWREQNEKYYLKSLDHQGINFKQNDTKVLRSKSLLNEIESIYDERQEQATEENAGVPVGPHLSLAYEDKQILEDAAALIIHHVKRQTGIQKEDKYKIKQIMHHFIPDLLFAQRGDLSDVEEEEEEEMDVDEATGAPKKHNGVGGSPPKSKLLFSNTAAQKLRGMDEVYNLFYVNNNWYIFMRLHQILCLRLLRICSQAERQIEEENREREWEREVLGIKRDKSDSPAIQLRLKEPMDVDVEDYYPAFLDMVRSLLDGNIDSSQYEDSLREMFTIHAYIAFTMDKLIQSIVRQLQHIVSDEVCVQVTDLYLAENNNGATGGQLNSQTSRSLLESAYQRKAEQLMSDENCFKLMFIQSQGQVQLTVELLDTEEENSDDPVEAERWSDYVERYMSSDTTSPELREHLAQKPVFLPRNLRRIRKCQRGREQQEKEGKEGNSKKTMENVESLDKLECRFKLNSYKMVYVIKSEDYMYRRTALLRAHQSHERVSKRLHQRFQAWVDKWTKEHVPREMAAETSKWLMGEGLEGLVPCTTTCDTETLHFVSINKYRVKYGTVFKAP

In assay [2] the target is T2, O-linked β-N-acetylglucosamine transferase (mouse (endogenous in ventricular tissue)) (UniProt Q8CGY8).
T2 sequence: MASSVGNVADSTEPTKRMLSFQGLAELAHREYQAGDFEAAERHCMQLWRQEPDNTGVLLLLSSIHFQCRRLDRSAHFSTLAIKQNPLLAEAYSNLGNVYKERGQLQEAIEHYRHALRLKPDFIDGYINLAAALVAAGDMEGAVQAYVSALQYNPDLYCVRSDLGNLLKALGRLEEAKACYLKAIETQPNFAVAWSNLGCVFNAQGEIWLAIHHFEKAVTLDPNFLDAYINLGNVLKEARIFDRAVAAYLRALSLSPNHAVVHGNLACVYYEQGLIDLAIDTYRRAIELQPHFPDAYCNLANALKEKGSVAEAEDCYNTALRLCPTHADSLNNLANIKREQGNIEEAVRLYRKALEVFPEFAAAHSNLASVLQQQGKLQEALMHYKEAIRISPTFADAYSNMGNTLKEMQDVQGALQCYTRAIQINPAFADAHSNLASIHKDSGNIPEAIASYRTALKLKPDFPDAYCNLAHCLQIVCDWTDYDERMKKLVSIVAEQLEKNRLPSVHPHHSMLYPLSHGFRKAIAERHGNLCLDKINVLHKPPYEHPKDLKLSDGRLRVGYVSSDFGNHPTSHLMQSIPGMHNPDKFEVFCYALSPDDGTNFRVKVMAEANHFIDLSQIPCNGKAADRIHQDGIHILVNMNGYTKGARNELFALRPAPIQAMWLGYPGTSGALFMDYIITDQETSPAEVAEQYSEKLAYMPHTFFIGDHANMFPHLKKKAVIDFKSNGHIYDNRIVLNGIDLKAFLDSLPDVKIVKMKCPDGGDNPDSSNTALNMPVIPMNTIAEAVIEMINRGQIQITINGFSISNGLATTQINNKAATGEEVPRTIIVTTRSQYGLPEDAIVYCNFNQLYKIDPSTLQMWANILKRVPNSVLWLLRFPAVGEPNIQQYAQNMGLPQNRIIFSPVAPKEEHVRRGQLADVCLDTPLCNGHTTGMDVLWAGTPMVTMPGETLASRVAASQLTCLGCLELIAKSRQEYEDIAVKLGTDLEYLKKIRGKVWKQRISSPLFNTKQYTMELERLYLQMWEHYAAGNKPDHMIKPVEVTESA

In assay [3] the target is Histone deacetylase 1 (mouse (endogenous in ventricular tissue)) (UniProt O09106).

On to “Histone deacetylase 1 (from UniProt O09106 1-482) (enzyme)”, for which, in assay [1], the binding entry is given as “binds”.

In the case of “Histone deacetylase 2 (from UniProt P70288 1-488) (enzyme)”, the binding result in assay [1] and in assay [2] was “binds” each time.

B1: Repressor element-1 silencing transcription factor (protein, UniProt Q8VIG1 1-1082)
chain: MATQVMGQSSGGGSLFNNSANMGMALTNDMYDLHELSKAELAAPQLIMLANVALTGEASGSCCDYLVGEERQMAELMPVGDNHFSESEGEGLEESADLKGLENMELGSLELSAVEPQPVFEASAAPEIYSANKDPAPETPVAEDKCRSSKAKPFRCKPCQYEAESEEQFVHHIRIHSAKKFFVEESAEKQAKAWESGSSPAEEGEFSKGPIRCDRCGYNTNRYDHYMAHLKHHLRAGENERIYKCIICTYTTVSEYHWRKHLRNHFPRKVYTCSKCNYFSDRKNNYVQHVRTHTGERPYKCELCPYSSSQKTHLTRHMRTHSGEKPFKCDQCNYVASNQHEVTRHARQVHNGPKPLNCPHCDYKTADRSNFKKHVELHVNPRQFNCPVCDYAASKKCNLQYHFKSKHPTCPSKTMDVSKVKLKKTKKREADLLNNAVSNEKMENEQTKTKGDVSGKKNEKPVKAVGKDASKEKKPGSSVSVVQVTTRTRKSAVAAETKAAEVKHTDGQTGNNPEKPCKAKKNKRKKDAEAHPSEEPVNEGPVTKKKKKSECKSKIGTNVPKGGGRAEERPGVKKQSASLKKGTKKTPPKTKTSKKGGKLAPKGMGQTEPSSGALAQVGVSPDPALIQAEVTGSGSSQTELPSPMDIAKSEPAQMEVSLTGPPPVEPAQMEPSPAKPPQVEAPTYPQPPQRGPAPPTGPAPPTGPAPPTEPAPPTGLAEMEPSPTEPSQKEPPPSMEPPCPEELPQAEPPPMEDCQKELPSPVEPAQIEVAQTAPTQVQEEPPPVSEPPRVKPTKRSSLRKDRAEKELSLLSEMARQEQVLMGVGLVPVRDSKLLKGNKSAQDPPAPPSPSPKGNSREETPKDQEMVSDGEGTIVFPLKKGGPEEAGESPAELAALKESARVSSSEQNSAMPEGGASHSKCQTGSSGLCDVDTEQKTDTVPMKDSAAEPVSPPTPTVDRDAGSPAVVASPPITLAENESQEIDEDEGIHSHDGSDLSDNMSEGSDDSGLHGARPTPPEATSKNGKAGLAGKVTEGEFVCIFCDRSFRKEKDYSKHLNRHLVNVYFLEEAAEEQEEQEEREEQE
For B1, the binding entry in assay [1] and in assay [2] was “binds” each time.

B2: Mammalian switch-independent 3A (protein, UniProt Q60520 1-1274)
chain: T1 sequence
As to B2, the binding result in assay [3] and in assay [2] was “binds” each time.

B3: O-linked β-N-acetylglucosamine transferase (enzyme, UniProt Q8CGY8 1-1046)
chain: T2 sequence
In the case of B3, the binding result in assay [1] is “binds”.
